Measurements: the supplement of paper PMC5949888
± gives the standard deviation of the averaged measurements. Most values lie at the floor of the assay. Slopes are relative: functional sequences can read slightly below zero.

system: Saccharomyces cerevisiae PS128 hsf1 delta, HSF1(1-493) fusion; experiment: growth estimate (transactivation domain function in HSF1 fusion, heat-shock survival) (a.u. (slope of normalised read count over time)); higher = stronger growth at 37°C, i.e. more transactivation activity; settings: library: random library

Substance	growth estimate
TRLNVKECCLPMQYWATKLR	< -0.25
TRLRQP	< -0.25
TRLYIWWVVCREYRALAAGY	< -0.25
TRNETAISLVRLWGLRKPPR	< -0.25
TRNRWYTPSEDDSDEISGRN	< -0.25
TRNSVVCEGTRTGDTA	< -0.25
TRPRS	< -0.25
TRQ	< -0.25
TRQRMYQIHL	< -0.25
TRRA	< -0.25
TRRAWAYQQ	< -0.25
TRRDITHAAVAVRRRK	< -0.25
TRRFDHLVSPCSG	< -0.25
TRRHVKTTKKSAVRNSSRR	< -0.25
TRRLRQRGSLFVFAKNGKNA	< -0.25
TRRNQQ	< -0.25
TRSAVFP	< -0.25
TRSAVGLGVTGLAGGATLRR	< -0.25
TRTPCLN	< -0.25
TRTPPAGNGGKSTPGQI	< -0.25
TRTTITGLSNDGQCLAFITS	< -0.25
TRTTSRCMW	< -0.25
TRVFGAVKRDRTVP	< -0.25
TRVICCITI	< -0.25
TRVRQLVC	< -0.25
TRVSSCKIAIWPRSSKFKQP	< -0.25

Some of the entries so far, as comma-separated lines:
Substance,growth estimate
TRTPPAGNGGKSTPGQI,< -0.25
TRTTITGLSNDGQCLAFITS,< -0.25
TRTTSRCMW,< -0.25
TRVFGAVKRDRTVP,< -0.25

Continuation.

Substance	growth estimate
TRVVFPHGVVQLQPGRPH	< -0.25
TSADIKNA	< -0.25
TSAEPAYACAFVGRR	< -0.25
TSAGIVLRCIDPDVPISVCH	< -0.25
TSAIKVRTERQGAALETTMN	< -0.25
TSAPEIKSGLAATQADRCSC	< -0.25
TSAQPFSCPNGV	< -0.25
TSCGREPIVLGRSSPSVTIS	< -0.25
TSCRSSRAIDVKGIIARRRL	< -0.25
TSDDEVHMLWSDNGNFPPDF	0.213
TSDGQGYIRPPARQFRKWR	< -0.25
TSDLSEVGRDF	< -0.25
TSDRPRNCG	< -0.25
TSFRVDQFY	< -0.25
TSGTLKRLTRPAS	< -0.25
TSGTQVREHVQIDVGTGT	< -0.25
TSHGG	< -0.253
TSHNPQEWGSI	-0.232
TSIISGTTMAFALTRGKGTY	< -0.25
TSKWNKRAVRAATPTGDRLC	< -0.25
TSLGETTVWTNFG	< -0.25
TSLGIRTTHLGSKVSCGPVK	< -0.25
TSLGYSIICGCDNGST	< -0.25
TSLLKWAHNAL	< -0.25
TSLRIHW	< -0.25
TSLSSQMK	< -0.25

Substance	growth estimate
TSMTITLLVESFKRLLCSSA	< -0.25
TSNNSRLTDPVMLLRTDRAP	< -0.25
TSNQQHRDMRRNDCITLGRQ	< -0.25
TSNWIWHPRSWIELRPC	< -0.25
TSPGNGGNIPDCVTLKHGR	< -0.25
TSPRM	< -0.25
TSREYKRVLGRPSKQQAVIM	< -0.25
TSRLRTL	< -0.25
TSSGGLPWSSR	< -0.25
TSSKGFGKLGRRGVTSVALG	< -0.25
TSSLELIG	< -0.25
TSSNVTVLTGVTGQI	< -0.25
TSSRIL	< -0.25
TSSWTRADRFWEQHTERLIY	< -0.25
TSTKRWVKDKQKPKHIGQKP	< -0.25
TSTMSG	< -0.25
TSVGKICNE	< -0.25
TSVR	< -0.25
TSVRIDMVKLRMREIVCCFS	< -0.25
TSWKSSQARRNGRLVMKRAA	< -0.25
TTAGFNSPGRYNVRILFAAH	< -0.25
TTAGKLWP	< -0.25
TTEGQPAQGERIKRDCPPPS	< -0.25
TTETVDREFDYLPTVLYGPG	< -0.25
TTGLLCLPKSLTRPLGGVRG	< -0.25
TTHH	< -0.25

Substance	growth estimate
TTKCV	< -0.25
TTKVSFVRVGNRTSCLRVHL	< -0.25
TTKVSRGSHFFRLLLSTYWV	< -0.25
TTLDPAEGQRDTRNYVSFGC	< -0.25
TTLEVSEGAGVGWKM	< -0.25
TTMSREPVTSRRPYTGTQHP	< -0.25
TTNVFNCNSPEFGAAERLVS	< -0.25
TTQETLLGAGAQGSLCAGES	< -0.25
TTQLGFHPGTVLVGVLLTIK	0.342
TTQPDRLSSGVNRWMLSGQI	< -0.25
TTQSSRLARRRRKSGSNNAY	< -0.25
TTRAESAL	< -0.25
TTRSSPTQGG	< -0.25
TTRVRICGLSTGSVRPAAVL	< -0.25
TTSNARIHLLIYRRHIIECG	< -0.25
TTSRLRDDRVRGPTN	< -0.25
TTTGYIWA	< -0.25
TTTK	< -0.25
TTTV	< -0.25
TTVGHRFAKEFN	< -0.25
TTVKLRKPLM	< -0.25
TTVLSTRERRRFTAELSSVN	< -0.25
TTVNTGDGSLWR	< -0.25
TTVVN	< -0.25
TVALAD	< -0.25
TVALFWYWSRVHVSGGLSAP	< -0.25

Substance	growth estimate
TVAMYAD	< -0.25
TVAQNLEQKAGHSDRRGV	< -0.25
TVARIKRSGYISVSLLASSS	< -0.25
TVASGNSVLRRGYTRSYL	< -0.25
TVEGGGRDNRSL	< -0.25
TVEPRRR	< -0.25
TVFTPECQVSLCSDDREVKH	< -0.25
TVGG	< -0.25
TVGITLKLVGVYQVAA	< -0.25
TVGRKDHRSGSDRRCSQLS	< -0.25
TVGSNQLRRASWGLFNRTGG	-0.231
TVGTKIICGRLYQLSGPIPI	< -0.25
TVHRRSVYGS	< -0.25
TVILRCLQPPSVPSLAELGP	< -0.25
TVISKCSSTAPQSP	< -0.25
TVKCPESQRVAIETQVPYAG	< -0.25
TVKCRCEKGLVPDV	< -0.25
TVKMRLNTMSRAETGMRASL	< -0.25
TVLANITHRHELLHFGIYPV	< -0.25
TVLILVR	< -0.25
TVLNGQMERAWVALLTSNRL	< -0.25
TVLR	-0.244 ± 0.011
TVLWTVGELARVRIFLSGYF	-0.217
TVNKHYFTIRGIA	< -0.25
TVNVWEADVFCKVGGNLEAW	< -0.25
TVPHDFIFHYLSSEG	< -0.25

Random excerpt: 4 entries already listed, in no set order.
Substance	growth estimate
TVILRCLQPPSVPSLAELGP	< -0.25
TVGITLKLVGVYQVAA	< -0.25
TVNKHYFTIRGIA	< -0.25
TVKMRLNTMSRAETGMRASL	< -0.25

(continued)

Substance	growth estimate
TVPYILHPITRFPLTLWWCP	< -0.25
TVQAGRRAVFR	< -0.25
TVQGLGEWVVDCGG	< -0.25
TVRPGLLDATSECRAGN	< -0.25
TVRQLETNFDGPVTLLQPAT	< -0.25
TVRWSGLHILTALLVSCHFT	< -0.25
TVSFRLSPSEIE	< -0.25
TVSFYRSNP	-0.0063
TVSPNPTDERTSLLEGKFCS	< -0.25
TVTARGGRSGRPGSELPWTR	< -0.25
TVVARAWVFS	-0.245
TVVCISLVRLA	< -0.25
TVVDR	-0.245
TVVQMHACPGHRYSSRS	< -0.25
TVVREGSGGN	< -0.25
TVVVDCGFIRGLQRDVRPS	< -0.25
TVYGDRGNVQSRRILLPSFI	-0.245
TVYLPSLTRMLGGIDPLYIF	< -0.25
TWA	< -0.25
TWALC	< -0.25
TWD	-0.245
TWFNALAVT	< -0.25
TWHWWRKELVKQRVRNYRTG	< -0.25
TWIDRFQRDEQLPC	< -0.25
TWLANRVH	< -0.25
TWLKVTLSWGVVTY	< -0.25

Already shown: entries from further up.
Substance	growth estimate
TSLRIHW	< -0.25
TSLSSQMK	< -0.25
TSMTITLLVESFKRLLCSSA	< -0.25

(cont.)

Substance	growth estimate
TWLRCV	< -0.25
TWP	< -0.25
TWTRARTFVLQRVPVGSRRS	< -0.25
TWTRDFHMFSVARTFHNRCL	< -0.25
TWVVGRAYAGSHLMFTCITS	< -0.25
TYCGWGSAISPTGSESATLG	< -0.25
TYCIS	< -0.25
TYCWV	< -0.25
TYD	< -0.25
TYEPVLDIGPRIV	< -0.25
TYFSGVKVVSLGLLAAPWAT	< -0.25
TYGFFVIEDQNGT	< -0.25
TYGSS	< -0.25
TYHDSLLRGGREERVYRGGC	< -0.25
TYIPCSTPLPVSLVIDGLTV	< -0.25
TYKILRHFHIRTAWKLPITV	< -0.25
TYLQGKGTWSSKFIRCLYPW	< -0.25
TYNGNMSR	-0.243
TYQRSWA	< -0.25
TYRVKRAKGIGNTEVHVRPR	< -0.25
TYSIWLTVYKSYIINAIRR	< -0.25
TYVKGLVTRLTGTGRYTNAK	< -0.25
TYWASQGIAIFVARSTIYKA	< -0.25
VAACLFVAQGCRLIS	< -0.25
VADGCTSR	< -0.25
VADLG	< -0.25

Substance	growth estimate
VADRVKSTYVRVQSRLPRPA	< -0.25
VAEQSVACL	< -0.25
VAESFLGRLHPIDVTCSLPR	< -0.25
VAG	< -0.25
VAGA	< -0.25
VAGADRNGVGLPNRPAHTRP	< -0.25
VAGCPISATKHPELTNSLGV	< -0.25
VAGIIDVGGGRLRSGTMQCR	< -0.25
VAGPLRGNYARTSVCDRRQD	< -0.25
VAGVTRSGMYLRLSVDLGRL	< -0.25
VAGYSGPRQRAVRGTPAGGT	< -0.25
VAIEDRGLSYVSCIISRSVG	< -0.25
VALAQLIIKSQWSYRSVRPH	< -0.25
VALHSV	< -0.25
VALKV	< -0.25
VALP	-0.248
VALSRKRCLDGYCYSIAGSV	< -0.25
VALW	< -0.25
VAMSVAPWKKTLRAASFELQ	< -0.25
